Paper PMC4671683
Results are given in words; binding and its absence hold for the method and conditions named. In cells and extracts the contact can be indirect. A yes stands for co-enrichment or nearness to the bait. Other partners may have been found. One block for each binder: values may come before it.

The chains behind the UniProt entries cited, without tags or fusion partners.
UniProt P26368: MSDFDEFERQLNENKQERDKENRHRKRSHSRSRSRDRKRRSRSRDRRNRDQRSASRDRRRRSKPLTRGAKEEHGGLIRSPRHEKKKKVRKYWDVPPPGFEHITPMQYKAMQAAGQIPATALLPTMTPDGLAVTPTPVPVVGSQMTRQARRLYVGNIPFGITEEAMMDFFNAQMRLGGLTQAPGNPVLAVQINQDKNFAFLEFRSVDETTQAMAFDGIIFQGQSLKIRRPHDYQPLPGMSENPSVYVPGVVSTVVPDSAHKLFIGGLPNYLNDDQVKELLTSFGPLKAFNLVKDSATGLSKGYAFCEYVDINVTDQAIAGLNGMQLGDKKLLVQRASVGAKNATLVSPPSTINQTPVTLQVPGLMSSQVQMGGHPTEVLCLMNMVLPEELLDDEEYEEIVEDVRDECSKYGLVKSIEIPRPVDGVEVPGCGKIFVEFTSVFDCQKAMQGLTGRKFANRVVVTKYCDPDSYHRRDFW

Columns and labels:
[1] = target: U2AF2 (human (endogenous in primary CD4 T cells and Jurkat cells)) (UniProt P26368); experiment: affinity purification with mass spectrometry; U2AF2 RIP from lysates (RIPA + NET-2 buffer) of resting or activated CD4 T cells, pre-cleared with mouse IgG beads, U2AF2 antibody on Protein G beads overnight at 4°C, 5 washes with NET-2, no RNase; TripleTOF 5600, n = 6/group
[2] = target: T1, U2AF2 (human (endogenous in primary CD4 T cells and Jurkat cells)), P26368; experiment: affinity purification with mass spectrometry; as the U2AF2 RIP-MS, but RNAse A digestion on the beads (10 ug/ml for 30 minutes at RT) before elution; resting or activated CD4 T cells, n = 4/group; conditions: remark: other sources report otherwise
[3] = target: T1, U2AF2 (human (endogenous in primary CD4 …)); experiment: affinity purification with mass spectrometry; U2AF2 RIP from lysates (RIPA + NET-2 buffer) of resting or activated CD4 T cells, pre-cleared with mouse IgG beads, U2AF2 antibody on Protein G beads overnight at 4°C, 5 washes with NET-2, no RNase; TripleTOF 5600, n = 6/group; conditions: remark: other sources report otherwise

B2: U2AF1, Q01081 1-240 (protein)
chain: MAEYLASIFGTEKDKVNCSFYFKIGACRHGDRCSRLHNKPTFSQTIALLNIYRNPQNSSQSADGLRCAVSDVEMQEHYDEFFEEVFTEMEEKYGEVEEMNVCDNLGDHLVGNVYVKFRREEDAEKAVIDLNNRWFNGQPIHAELSPVTDFREACCRQYEMGECTRGGFCNFMHLKPISRELRRELYGRRRKKHRSRSRSRERRSRSRDRGRGGGGGGGGGGGGRERDRRRSRDRERSGRF
binding [2]: binds

B3: SFRS10, P62995 1-288 (protein)
chain: MSDSGEQNYGERESRSASRSGSAHGSGKSARHTPARSRSKEDSRRSRSKSRSRSESRSRSRRSSRRHYTRSRSRSRSHRRSRSRSYSRDYRRRHSHSHSPMSTRRRHVGNRANPDPNCCLGVFGLSLYTTERDLREVFSKYGPIADVSIVYDQQSRRSRGFAFVYFENVDDAKEAKERANGMELDGRRIRVDFSITKRPHTPTPGIYMGRPTYGSSRRRDYYDRGYDRGYDDRDYYSRSYRGGGGGGGGWRAAQDRDQIYRRRSPSPYYSRGGYRSRSRSRSYSPRRY
binding [3]: binds

B4: SFRS7 (protein, UniProt Q16629 1-238)
chain: MSRYGRYGGETKVYVGNLGTGAGKGELERAFSYYGPLRTVWIARNPPGFAFVEFEDPRDAEDAVRGLDGKVICGSRVRVELSTGMPRRSRFDRPPARRPFDPNDRCYECGEKGHYAYDCHRYSRRRRSRSRSRSHSRSRGRRYSRSRSRSRGRRSRSASPRRSRSISLRRSRSASLRRSRSGSIKGSRYFQSPSRSRSRSRSISRPRSSRSKSRSPSPKRSRSPSGSPRRSASPERMD
binding [1]: binds

B5: TRA2A (protein, UniProt Q13595 1-282)
chain: MSDVEENNFEGRESRSQSKSPTGTPARVKSESRSGSRSPSRVSKHSESHSRSRSKSRSRSRRHSHRRYTRSRSHSHSHRRRSRSRSYTPEYRRRRSRSHSPMSNRRRHTGSRANPDPNTCLGVFGLSLYTTERDLREVFSRYGPLSGVNVVYDQRTGRSRGFAFVYFERIDDSKEAMERANGMELDGRRIRVDYSITKRAHTPTPGIYMGRPTHSGGGGGGGGGGGGGGGGRRRDSYYDRGYDRGYDRYEDYDYRYRRRSPSPYYSRYRSRSRSRSYSPRRY
binding [1]: binds

B6: SFRS3 (protein, UniProt P84103 1-164)
chain: MHRDSCPLDCKVYVGNLGNNGNKTELERAFGYYGPLRSVWVARNPPGFAFVEFEDPRDAADAVRELDGRTLCGCRVRVELSNGEKRSRNRGPPPSWGRRPRDDYRRRSPPPRRRSPRRRSFSRSRSRSLSRDRRRERSLSRERNHKPSRSFSRSRSRSRSNERK
binding [1]: binds

Further lines, results first:

binding [1]: binds
B1: hnRNPLL (protein, UniProt Q8WVV9 1-542)
chain: MSSSSSSPRETYEEDREYESQAKRLKTEEGEIDYSAEEGENRREATPRGGGDGGGGGRSFSQPEAGGSHHKVSVSPVVHVRGLCESVVEADLVEALEKFGTICYVMMMPFKRQALVEFENIDSAKECVTFAADEPVYIAGQQAFFNYSTSKRITRPGNTDDPSGGNKVLLLSIQNPLYPITVDVLYTVCNPVGKVQRIVIFKRNGIQAMVEFESVLCAQKAKAALNGADIYAGCCTLKIEYARPTRLNVIRNDNDSWDYTKPYLGRRDRGKGRQRQAILGEHPSSFRHDGYGSHGPLLPLPSRYRMGSRDTPELVAYPLPQASSSYMHGGNPSGSVVMVSGLHQLKMNCSRVFNLFCLYGNIEKVKFMKTIPGTALVEMGDEYAVERAVTHLNNVKLFGKRLNVCVSKQHSVVPSQIFELEDGTSSYKDFAMSKNNRFTSAGQASKNIIQPPSCVLHYYNVPLCVTEETFTKLCNDHEVLTFIKYKVFDAKPSAKTLSGLLEWECKTDAVEALTALNHYQIRVPNGSNPYTLKLCFSTSSHL

binding [1]: binds
B7: hnRNPL (protein, UniProt P14866 1-589)
chain: MSRRLLPRAEKRRRRLEQRQQPDEQRRRSGAMVKMAAAGGGGGGGRYYGGGSEGGRAPKRLKTDNAGDQHGGGGGGGGGAGAAGGGGGGENYDDPHKTPASPVVHIRGLIDGVVEADLVEALQEFGPISYVVVMPKKRQALVEFEDVLGACNAVNYAADNQIYIAGHPAFVNYSTSQKISRPGDSDDSRSVNSVLLFTILNPIYSITTDVLYTICNPCGPVQRIVIFRKNGVQAMVEFDSVQSAQRAKASLNGADIYSGCCTLKIEYAKPTRLNVFKNDQDTWDYTNPNLSGQGDPGSNPNKRQRQPPLLGDHPAEYGGPHGGYHSHYHDEGYGPPPPHYEGRRMGPPVGGHRRGPSRYGPQYGHPPPPPPPPEYGPHADSPVLMVYGLDQSKMNCDRVFNVFCLYGNVEKVKFMKSKPGAAMVEMADGYAVDRAITHLNNNFMFGQKLNVCVSKQPAIMPGQSYGLEDGSCSYKDFSESRNNRFSTPEQAAKNRIQHPSNVLHFFNAPLEVTEENFFEICDELGVKRPSSVKVFSGKSERSSSGLLEWESKSDALETLGFLNHYQMKNPNGPYPYTLKLCFSTAQHAS
